{"sequences": {"note": "Protein sequences, listed by entry. Tags and fused reporters are not part of them. Lines headed by an entry give the natural chain unless they say otherwise; changes in a name come on top.", "UniProt O75460": "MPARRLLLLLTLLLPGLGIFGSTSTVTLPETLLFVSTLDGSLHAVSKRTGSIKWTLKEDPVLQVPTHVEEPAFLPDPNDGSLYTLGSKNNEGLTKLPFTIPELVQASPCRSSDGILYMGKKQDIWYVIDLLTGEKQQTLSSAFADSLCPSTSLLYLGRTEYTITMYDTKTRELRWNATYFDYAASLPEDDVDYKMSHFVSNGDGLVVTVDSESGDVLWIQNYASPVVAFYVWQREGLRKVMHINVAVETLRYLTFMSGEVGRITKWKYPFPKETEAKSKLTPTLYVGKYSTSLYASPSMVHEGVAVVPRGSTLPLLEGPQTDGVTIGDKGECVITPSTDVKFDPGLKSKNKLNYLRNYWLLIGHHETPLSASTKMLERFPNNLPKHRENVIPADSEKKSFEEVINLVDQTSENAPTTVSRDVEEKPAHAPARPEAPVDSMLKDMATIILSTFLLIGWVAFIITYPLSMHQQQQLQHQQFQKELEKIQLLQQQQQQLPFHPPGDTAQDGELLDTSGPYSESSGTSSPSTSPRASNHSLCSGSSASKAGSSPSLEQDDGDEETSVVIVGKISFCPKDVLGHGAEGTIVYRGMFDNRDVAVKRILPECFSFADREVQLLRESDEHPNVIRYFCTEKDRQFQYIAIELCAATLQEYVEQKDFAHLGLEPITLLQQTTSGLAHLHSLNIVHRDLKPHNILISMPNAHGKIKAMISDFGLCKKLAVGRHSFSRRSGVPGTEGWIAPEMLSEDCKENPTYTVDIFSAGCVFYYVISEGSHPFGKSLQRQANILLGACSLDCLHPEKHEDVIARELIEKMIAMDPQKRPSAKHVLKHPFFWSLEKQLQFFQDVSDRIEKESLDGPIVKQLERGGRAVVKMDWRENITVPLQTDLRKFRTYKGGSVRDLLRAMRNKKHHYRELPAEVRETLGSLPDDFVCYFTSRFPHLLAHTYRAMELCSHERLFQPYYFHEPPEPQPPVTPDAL", "UniProt P10415": "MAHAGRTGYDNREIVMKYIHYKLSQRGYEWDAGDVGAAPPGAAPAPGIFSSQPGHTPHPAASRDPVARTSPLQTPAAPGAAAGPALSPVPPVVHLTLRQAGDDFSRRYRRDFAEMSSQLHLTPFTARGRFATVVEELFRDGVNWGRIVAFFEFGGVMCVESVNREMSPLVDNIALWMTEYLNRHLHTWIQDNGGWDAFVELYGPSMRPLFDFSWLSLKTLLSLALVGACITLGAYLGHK", "UniProt Q13323": "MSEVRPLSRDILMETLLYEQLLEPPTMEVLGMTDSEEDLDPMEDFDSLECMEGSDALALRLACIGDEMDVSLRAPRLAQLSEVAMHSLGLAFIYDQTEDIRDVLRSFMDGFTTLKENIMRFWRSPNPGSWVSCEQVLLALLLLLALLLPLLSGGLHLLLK"}, "source": "paper doi:10.1101/572222", "key": {"[1]": {"target": "Full length Ire1 (untagged) (human) (UniProt O75460)", "test": "co-IP"}, "[2]": {"target": "T1, Bid fused with the GAL4 DNA binding domain (UniProt P55957)", "T1 sequence": "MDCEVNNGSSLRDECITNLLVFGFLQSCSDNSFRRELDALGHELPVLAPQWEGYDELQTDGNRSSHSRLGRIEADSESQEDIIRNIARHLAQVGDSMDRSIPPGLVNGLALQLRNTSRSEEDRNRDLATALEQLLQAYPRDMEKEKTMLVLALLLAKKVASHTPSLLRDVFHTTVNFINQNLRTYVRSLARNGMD", "test": "two-hybrid"}, "[3]": {"target": "T2, GST-tagged Bid (UniProt P55957)", "T2 sequence": "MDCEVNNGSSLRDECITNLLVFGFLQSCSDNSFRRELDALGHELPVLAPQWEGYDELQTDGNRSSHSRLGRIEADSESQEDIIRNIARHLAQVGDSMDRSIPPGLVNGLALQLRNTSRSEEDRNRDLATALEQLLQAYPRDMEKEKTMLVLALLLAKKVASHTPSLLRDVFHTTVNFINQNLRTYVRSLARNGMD", "test": "co-IP"}, "[4]": {"target": "Full length Ire1 (untagged) (human) (UniProt O75460)", "test": "co-IP", "remark": "listed apart in the source"}}, "note": "Like-named read-outs stand apart in the source and are kept apart here. Results are given in words; binding and its absence hold for the method and conditions named. For some assays here: In cells and extracts the contact can be indirect. Some binding calls cover weakened binding; strength is not graded here. For some assays here: Tags and fused reporters may be left off the sequences shown.", "data": [{"molecule": "GST-tagged Bcl-2 (from UniProt P10415 1-239)", "values": [{"measurement": "binding", "setting": "[1]", "result": "no binding"}]}, {"molecule": "GST-tagged Bik (from UniProt Q13323 1-160)", "values": [{"measurement": "binding", "setting": "[1]", "result": "no binding"}]}, {"molecule": "IRE1 fused with the GAL4 activation domain (from UniProt O75460 1-977)", "values": [{"measurement": "binding", "setting": "[2]", "result": "binds"}]}, {"molecule": "Full length Ire1 (untagged) (from UniProt O75460 19-977)", "values": [{"measurement": "binding", "setting": "[3]", "result": "binds"}]}, {"molecule": "GST-tagged Bid (protein, UniProt P55957 1-195) MDCEVNNGSSLRDECITNLLVFGFLQSCSDNSFRRELDALGHELPVLAPQWEGYDELQTDGNRSSHSRLGRIEADSESQEDIIRNIARHLAQVGDSMDRSIPPGLVNGLALQLRNTSRSEEDRNRDLATALEQLLQAYPRDMEKEKTMLVLALLLAKKVASHTPSLLRDVFHTTVNFINQNLRTYVRSLARNGMD", "values": [{"measurement": "binding", "setting": "[4]", "result": "binds"}]}]}
